Measurements from PubChem BioAssay AID248 (DTP/NCI, 2004).
The list is a part of this screen's results and no random one: it gathers tests that were run many times, whatever their T/C, doses with no T/C, and many T/C values between a quarter and a half above the control. Further doses and runs are listed elsewhere. T/C is the treated group as % of the vehicle group. Some doses have a count of surviving animals in place of a T/C: the source files T/C as zero there, which appears to mark a toxic dose or a test without result, not a measured value. Some doses without a T/C left all or most animals alive at the check, yet need not have been tolerated: the source hardly ever lists a survival T/C far under the control, and the zero likely stands for such cases as well. Counts of survivors are from the toxicity check (mostly the fifth day) where no day follows; animals may have died later. Schedule codes are those of the source, taken here to give the interval after Q, in days (D) or hours (H), and the number of doses after X. Some schedules carry Z or #; the key to these is not given. Where survival is the endpoint, the PubChem record calls one and a half times the control and up active, and a quarter to a half above the control has no call in these data; cut-offs in other NCI protocols can differ. Some doses were run more than once; the results are listed from low to high. Some T/C values are followed by the survivors on the day toxicity was checked, most often the fifth; where none is given, no animal had died by that day.

Test system: L1210 leukemia ip in BDF1 mice, survival T/C
Test: NCI In Vivo Anticancer Drug Screen. Data for tumor model L1210 Leukemia (intraperitoneal) in B6D2F1 (BDF1) mice
Details: T/C endpoint: mean survival time, higher T/C = longer survival
[1] = dose: 50.0 mg/kg/injection, schedule: Q01DX001 (ip), vehicle: saline
[2] = dose: 100.0 mg/kg/injection, schedule: Q01DX001 (ip), vehicle: saline
[3] = dose: 200.0 mg/kg/injection, schedule: Q01DX001 (ip), vehicle: saline
[4] = dose: 400.0 mg/kg/injection, schedule: Q01DX001 (ip), vehicle: saline
[5] = dose: 400.0 mg/kg/injection, schedule: Q01DX009 (ip), vehicle: saline with Tween-80
[6] = dose: 100.0 mg/kg/injection, schedule: Q01DX009 (ip), vehicle: saline
[7] = dose: 200.0 mg/kg/injection, schedule: Q01DX009 (ip), vehicle: saline
[8] = dose: 100.0 mg/kg/injection, schedule: Q01DX009 (ip), vehicle: saline with Tween-80
[9] = dose: 200.0 mg/kg/injection, schedule: Q01DX009 (ip), vehicle: saline with Tween-80
[10] = dose: 400.0 mg/kg/injection, schedule: Q04DX002 (ip), vehicle: saline with Tween-80
[11] = dose: 200.0 mg/kg/injection, schedule: Q04DX002 (ip), vehicle: saline with Tween-80
[12] = dose: 400.0 mg/kg/injection, schedule: Q01DX009 (ip), vehicle: Klucel (hydroxypropylcellulose) (HPC)

## c1ccc(C2(c3ccccc3)CC([P+](c3ccccc3)(c3ccccc3)c3ccccc3)=NN2CC[P+](c2ccccc2)(c2ccccc2)c2ccccc2)cc1
dose: 12.5 mg/kg/injection, schedule: Q01DX001 (ip), vehicle: saline
  survivor count: 1 of 6
dose: 25.0 mg/kg/injection, schedule: Q01DX001 (ip), vehicle: saline
  survivor count: 0 of 6
[1]
  survivor count: 0 of 6
[2]
  survivor count: 0 of 6
[3]
  survivor count: 0 of 6
[4]
  survivor count: 0 of 6

## O=C(c1ccc(Cl)cc1Cl)C(Cl)Cl
dose: 240.0 mg/kg/injection, schedule: Q01DX015 (ip), vehicle: saline
  survivor count: 0 of 6

## Nc1nc(SCc2ccccc2)c2ncn(C3CC(O)C(CO)O3)c2n1 (stereo not given)
dose: 44.0 mg/kg/injection, schedule: Q01DX001 (ip), vehicle: saline
  T/C: 142 % of control
[1]
  T/C: 126 % of control
dose: 67.0 mg/kg/injection, schedule: Q01DX001 (ip), vehicle: saline
  T/C: 143 % of control
[2]
  T/C: 132 and 137 % of control
dose: 150.0 mg/kg/injection, schedule: Q01DX001 (ip), vehicle: saline
  T/C: 128 % of control [5 of 6 alive]
[3]
  T/C: 134 % of control

## Cc1ccc(/C=N\N=C\c2ccc(C)cc2)cc1
[5]
  survivor count: 6 of 6

## Cc1ccc(S(=O)(=O)OC2CN3CCC2CC3)cc1 (stereo not given)
[6]
  survivor count: 1 of 6
[7]
  survivor count: 0 of 6

## COCCNP(=O)(OC)OC
dose: 400.0 mg/kg/injection, schedule: Q01DX001 (ip), vehicle: acetone
  survivor count: 6 of 6

## O=S(=O)(CCS(=O)(=O)c1ccccc1)c1ccccc1
dose: 300.0 mg/kg/injection, schedule: Q01DX009 (ip), vehicle: saline
  survivor count: 6 of 6

## O=NN(CCCl)C(=O)Nc1ccccc1C(=O)O
dose: 12.0 mg/kg/injection, schedule: Q01DX001 (ip), vehicle: carboxymethylcellulose (CMC)
  T/C: 147 % of control

## CS(C)=O
dose: 0.8 grams/kg/injection, schedule: Q03HX008 (ip), vehicle: saline
  survivor count: 2 of 10
dose: 0.8 grams/kg/injection, schedule: Q03HX016 (ip), vehicle: saline
  survivor count: 3 of 10
dose: 0.8 grams/kg/injection, schedule: Q03HX024 (ip), vehicle: saline
  survivor count: 6 of 10
dose: 1000.0 mg/kg/injection, schedule: Q01DX Z (ip), vehicle: other
  survivor count: 6 of 6
dose: 2000.0 mg/kg/injection, schedule: Q01DX Z (ip), vehicle: other
  survivor count: 6 of 6
dose: 3.1 grams/kg/injection, schedule: Q03HX016 (ip), vehicle: saline
  survivor count: 10 of 10
dose: 6.3 grams/kg/injection, schedule: Q03HX008 (ip), vehicle: saline
  survivor count: 0 of 10
dose: 6.3 grams/kg/injection, schedule: Q03HX016 (ip), vehicle: saline
  survivor count: 0 of 10
dose: 6.3 grams/kg/injection, schedule: Q03HX024 (ip), vehicle: saline
  survivor count: 0 of 10

## CCOC(=O)c1ccc(N2C(=O)C=CC2=O)cc1
[8]
  survivor count: 6 of 6
[9]
  survivor count: 6 of 6
[5]
  survivor count: 3 of 6

## c1csc([Si](c2cccs2)(c2cccs2)c2cccs2)c1
[10]
  survivor count: 3 of 3

## CCC(CO)(CO)C(=[N-])c1ccccc1O.CCC(CO)(CO)N=Cc1ccccc1O.[Co]
[4]
  survivor count: 0 of 6

## COc1ccc(-c2sc(/N=C/c3cc(Br)cc(Br)c3O)c(C#N)c2C)cc1OC
dose: 400.0 mg/kg/injection, schedule: Q01DX001 (ip), vehicle: saline with Tween-80
  survivor count: 6 of 6

## CCCCc1ccncc1
[3]
  survivor count: 1 of 4
[4]
  survivor count: 0 of 4

## O=C(Nc1ccc(C2=NCCN2)cc1)c1cc(C(=O)Nc2ccc(C3=NCCN3)cc2)cc([N+](=O)[O-])c1
dose: 375.0 mg/kg/injection, schedule: Q01DX Z (ip), vehicle: methylcellulose (MC)
  T/C: 130 % of control

## CC(O)[CH2][Sb]([Br])([Br])([c]1ccccc1)[c]1ccccc1 (stereo not given)
dose: 100.0 mg/kg/injection, schedule: Q04DX002 (ip), vehicle: saline with Tween-80
  survivor count: 0 of 3
[11]
  survivor count: 0 of 3
[10]
  survivor count: 0 of 3

## CCS/C(Cl)=C(\Cl)SCC
dose: 200.0 mg/kg/injection, schedule: Q01DX009 (ip), vehicle: Klucel (hydroxypropylcellulose) (HPC)
  survivor count: 1 of 6
[12]
  survivor count: 0 of 6

## Cc1[nH]c(=S)[nH]c(=O)c1CCSC(=N)N
[4]
  survivor count: 0 of 6

## CCc1cccc(CC)c1NC(=S)NN
[11]
  survivor count: 0 of 3
[10]
  survivor count: 0 of 3

## NNC(=O)CCCc1ccccc1
[6]
  survivor count: 6 of 6
[3]
  survivor count: 3 of 6
[4]
  survivor count: 0 of 6

## CCc1ccccc1N/N=C(\Cl)C(C)=O
dose: 50.0 mg/kg/injection, schedule: Q01DX009 (ip), vehicle: saline
  survivor count: 2 of 6
[6]
  survivor count: 2 of 6
[7]
  survivor count: 0 of 6

## C[S+](C)CC(=O)c1ccccc1
dose: 400.0 mg/kg/injection, schedule: Q04DX003 (ip), vehicle: saline
  survivor count: 1 of 6

## O=C(Nc1cccc2ccccc12)O/N=C/c1ccccn1
[9]
  survivor count: 6 of 6

## CC(=O)[O][Hg][c]1cc(C)cc([N+](=O)[O-])c1O
dose: 35.0 mg/kg/injection, schedule: Q01DX009 (ip), vehicle: Klucel (hydroxypropylcellulose) (HPC)
  survivor count: 1 of 6
dose: 50.0 mg/kg/injection, schedule: Q04DX003 (ip), vehicle: Klucel (hydroxypropylcellulose) (HPC)
  survivor count: 0 of 6
dose: 55.0 mg/kg/injection, schedule: Q01DX009 (ip), vehicle: Klucel (hydroxypropylcellulose) (HPC)
  survivor count: 2 of 6
dose: 80.0 mg/kg/injection, schedule: Q01DX009 (ip), vehicle: Klucel (hydroxypropylcellulose) (HPC)
  survivor count: 0 of 6
dose: 100.0 mg/kg/injection, schedule: Q04DX003 (ip), vehicle: Klucel (hydroxypropylcellulose) (HPC)
  survivor count: 1 of 6
dose: 200.0 mg/kg/injection, schedule: Q04DX003 (ip), vehicle: Klucel (hydroxypropylcellulose) (HPC)
  survivor count: 0 of 6
dose: 400.0 mg/kg/injection, schedule: Q04DX003 (ip), vehicle: Klucel (hydroxypropylcellulose) (HPC)
  survivor count: 0 of 6

## C/C=C/C(=O)Nc1ccc(CC)cc1
[12]
  survivor count: 3 of 6

## C/C(=C\C(=O)O)CC(=O)O
dose: 50.0 mg/kg/injection, schedule: Q01DX009 (ip), vehicle: water
  survivor count: 5 of 6
dose: 200.0 mg/kg/injection, schedule: Q01DX009 (ip), vehicle: water
  survivor count: 3 of 6
dose: 200.0 mg/kg/injection, schedule: Q04DX003 (ip), vehicle: water
  survivor count: 3 of 6
dose: 400.0 mg/kg/injection, schedule: Q04DX003 (ip), vehicle: water
  survivor count: 0 of 6

## CC(=O)c1c(O)c(Br)c(C)oc1=O (tested in a mixture with another compound)
dose: 50.0 mg/kg/injection, schedule: Q01DX009 (ip), vehicle: saline with Tween-80
  survivor count: 2 of 3
[8]
  survivor count: 3 of 3
[9]
  survivor count: 0 of 3

## O=C(Nc1cccc(C(F)(F)F)c1)C(c1ccccc1)c1ccccc1
[12]
  survivor count: 5 of 6

## COS(=O)(=O)c1ccc(Cl)c([N+](=O)[O-])c1
dose: 3.0 mg/kg/injection, schedule: Q04DX003 (ip), vehicle: saline with Tween-80
  survivor count: 6 of 6
dose: 6.25 mg/kg/injection, schedule: Q04DX003 (ip), vehicle: saline with Tween-80
  survivor count: 6 of 6
dose: 12.5 mg/kg/injection, schedule: Q04DX003 (ip), vehicle: saline with Tween-80
  survivor count: 6 of 6
dose: 25.0 mg/kg/injection, schedule: Q04DX003 (ip), vehicle: saline with Tween-80
  survivor count: 6 of 6

## O=C(Nc1ncc(S(=O)(=O)c2ccc([N+](=O)[O-])cc2)s1)C(F)(F)F
[5]
  survivor count: 3 of 6

## CCCCCCCCCCC1CCC2CCC3CCCC4CCC1C2C34 (stereo not given)
[4]
  survivor count: 6 of 6
